Values from PubChem BioAssay AID1259327 (Drosophila RNAi Screening Center, 2017).

Assay: 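Baseline ATP after transmembrane-protein gene knock-down with water vehicle only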
Cells: Drosophila S2R+ cells
Reagent: long dsRNA against Drosophila genes
Duration: 5 days (water added on day 4, read one day later)
Challenge: water added as vehicle, no metal, one day before read-out
Detection: 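Total ATP measured by luciferase light, scaled to plate mean, duplicates averaged, then z-scored across plates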
Scale: ATP z-score: higher = more total ATP than typical wells; ATP luminescence: higher = more total ATP
Rule for the call: 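Called active when the ATP z-score exceeds 1.5 or falls below -1.5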
Meaning of the calls: active = hit: ATP up or down; inactive = no clear ATP change
Here is an unselected part of about 3,100 deposited reagents. In the full data, 378 (12%) were called active. 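Hits include both directions; z-score sign shows ATP rise or fall; raw luminescence values are not plate-normalised.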 Unmarked entries are inactive. The numbers tell different reagents against one gene apart. Not given: the amount of reagent.

| gene | dsRNA no. | ATP z-score, duplicate mean | ATP luminescence, replicate 1 (RLU) | ATP luminescence, replicate 2 (RLU) |
| --- | --- | --- | --- | --- |
| Ir75c | 1 | -1.04 | 6.35e5 | 6.23e5 |
| COX4L | 1 | -0.184 | 6.98e5 | 7.15e5 |
| COX4L | 2 | 0.235 | 5.09e5 | 4.53e5 |
| SdhC | 1 | -0.82 | 2.82e5 | 6.22e5 |
| SdhC | 2 | -0.977 | 3.76e5 | 4.48e5 |
| Npl4 | 1 | 0.477 | 7.75e5 | 7.35e5 |
| Npl4 | 2 | 0.402 | 3.43e5 | 7.39e5 |
| slif | 1 | -0.559 | 7.54e5 | 1.03e6 |
| slif | 2 | 1.15 | 6.11e5 | 5.04e5 |
